Laboratory results taken from patent US20210244686A1, “Novel Systems And Methods For The Therapeutic Use of Cannabinoids or Cannabinoid Analogs to Increase The Lipid Order of Cholesterol Containing Cell Membranes” (The Regents of the University of Colorado a body corporate, priority 2018, published 2021).

System: SK-N-BE(2) cells
Assay: RNAseq transcriptomics of CBD response
Assay type: cell-based, human
Conditions: 20 μM CBD
Procedure: In order to compare and contrast proteomic derived mechanistic components of the CBD response to that of transcriptomic components, the present inventors additionally performed RNAseq analysis of SK-N-BE(2) cells exposed to vehicle or 20 μM CBD at the time-points indicated in FIG. 1C. 5,643 differentially expressed genes were identified in the CBD response gene with a FDR<1%, which was further reduced to a list of 139 genes with an LFC>=1. […] While most of these annotations are supported by either the transcriptome or the proteome, dysregulation of cholesterol metabolism is supported by both. […] As a result of the agreement between proteomic and transcriptomic data, we focused our study thereafter on determining the role of cholesterol homeostasis in the CBD drug response.
Sequencing was performed on seven consecutive lanes. Median read counts per lane were ˜49,000 with a CV of ˜7%. Starting with 228 fastq files, each lane set was concatenated per condition. Using Trimmomtic-0.36, base pairs were trimmed if they dropped below a PHRED score of 15 within a sliding window of 4 bp. Remaining reads shorter than 35 base pairs were removed. Illumina adapter sequences were also clipped using Trimmomatic. […] Read alignment was accomplished using Tophat-2.0.13 and Cufflinks/Cuffdiff 2.2.1 was used for FPKM quantitation and differential expression analysis per time point.

C=C(C)[C@@H]1CCC(C)=C[C@H]1c1c(O)cc(CCCCC)cc1O [CBD, cannabidiol]
differentially expressed genes (FDR<1%): 5,643 | differentially expressed genes (FDR<1% and LFC>=1): 139
